Measured values: PubChem BioAssay AID2685 (National Center for Advancing Translational Sciences (NCATS), 2010)
Hit rate of the full screen: of about 320,000 compounds, about 2,100 (0.66%) were called active. Inconclusive means that the source gave no clear call. Such entries were picked first, then a sample of the others. Calls follow the shape of the dose curve; as a rule, active = well fitted inhibition curve with a large enough effect in the signal ratio, with a control signal flat (not every such curve was filed as active); inconclusive = small, poorly fitted or top-dose-only effect, or effect the other way, or a change in a side signal; inactive = flat fitted curve, though single readings scatter; the % refers to the signal ratio. Potencies beside an inconclusive call are fits to weak or partial responses and may not hold up. Where a SMILES comes first, the peptide text is derived from it. [ ]: non-standard residue; d: D form. The star is where a group is joined. ξ: configuration not given here. Boc = CC(C)(C)OC(=O)*; ξP = O=C(O)C1CCCN1

Assay: qHTS Assay for Lipid Storage Modulators in Drosophila S3 Cells
Conditions: BODIPY lipid droplet fluorescence, 18-24 h, cells fed with added oleic acid; lipid storage change, negative = inhibition: at 46.1 µM (top of the series) unless noted
How it was run: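 Drosophila S3 cells loaded with oleic acid (400 uM, as added) and compounds at several concentrations; lipid droplets imaged by 488-nm laser-scanning cytometry, 500–530 nm intensity and object ratio to cell channel. Percent activity normalized to 20 uM Triacsin C.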
% is scaled to controls: 0 for no effect and ±100 for the full control effect; potency is read from the fitted curve at half-maximal effect.

SMILES	lipid storage change, negative = inhibition	Potency
CCCn1c2ccc(C)cc2c2n[nH]c(=S)nc21	inconclusive: 12.4%	–
COc1ccc(CNC(=O)C2CCCN(S(=O)(=O)c3ccccc3)C2)cc1 (configuration not stated)	–	inconclusive: 29.1 µM [activator, single point]
O=C(CSc1nc2ccccc2[nH]1)NCc1ccco1	inconclusive: -5.4%	–
O=C(CN(C(=O)CCC(=O)Nc1ccccn1)c1cccc(F)c1)NCc1ccco1	inconclusive: -16.7%	–
O=C(CSc1nnc(NC(=O)c2c(F)cccc2F)s1)NCc1ccccc1	–	inconclusive: 29.1 µM [activator, single point]
COC(=O)c1ccc(CSc2nnc(NCc3ccccc3)s2)o1	–	inconclusive: 4.11 µM [activator, partial curve]
COc1cc(-c2noc(C)c2C(=O)NCCc2c[nH]c3ccccc23)cc(OC)c1OC	inconclusive: -18.4%	–
CN1N=C(C(F)(F)F)CC1=O	–	inconclusive: 29.1 µM [rising, single point]
O=C(NCC1CCCO1)c1ccc(F)c2ccccc12 (configuration not stated)	inconclusive: 27.1%	–
CC(C)C(NC(=O)c1ccccc1)C(=O)N1CCCCCC1 (configuration not stated)	inconclusive: 1.76%	–
Cc1ccc2oc(/N=C(\N)NC(=O)C3CC3)nc2c1	inconclusive: 3.69%	–
COc1ccccc1/C=C1\SC(=S)N(CCC(=O)N2CCCCC2CCO)C1=O (configuration not stated)	–	inconclusive: 6.51 µM [falling, full curve]
CC(=O)c1ccc(OCc2ccc(Oc3c(Cl)cccc3[N+](=O)[O-])cc2)cc1	–	inconclusive: 0.82 µM [activator, full curve]
Cn1c(=O)c2c(nc(CN3CCN(CCO)CC3)n2Cc2cccc3ccccc23)n(C)c1=O	–	inconclusive: 13 µM [activator, partial curve, poor fit]
CCc1ccc(CCC(=O)Nc2sc3c(c2C#N)CCCC3)o1	–	inconclusive: 3.66 µM [activator, full curve]
O=C(O)CC(NNC(=O)c1ccccc1)C(=O)Nc1cccc([N+](=O)[O-])c1 (configuration not stated)	inconclusive: -13.6%	–
COc1ccc(OCC(O)CN2CCN(Cc3ccc4c(c3)OCO4)CC2)cc1 (configuration not stated)	–	inconclusive: 1.64 µM [activator, full curve, poor fit]
COc1ccc(OC)c(NC(=O)C(Sc2ccccc2)c2ccccc2)c1 (configuration not stated)	inconclusive: -12.3%	–
C1=CC(c2cc3ccccc3o2)OC(CCc2ccccc2)C1 (configuration not stated)	–	inconclusive: 3.26 µM [activator, full curve]
CCC(CC)C(=O)NCCc1ccc(F)cc1	–	active: 25.9 µM
COc1ccc(CCNC(=O)C2CCCN(S(=O)(=O)c3ccccc3)C2)cc1 (configuration not stated)	–	inconclusive: 6.51 µM [activator, partial curve]
COc1ccccc1CNC(=O)CC12CC3CC(CC(Br)(C3)C1)C2	inconclusive: -49%	–
Cc1oc2nc(SCC(=O)NCCCO)nc(N)c2c1C	–	inconclusive: 8.2 µM [activator, partial curve]
CCn1cc(C(=O)OCC(=O)c2ccc(Cl)cc2)c(=O)c2ccc(C)nc21	inconclusive: -16.1%	–
O=C(/C=C/c1ccccc1Cl)c1ccc(O)cc1	inconclusive: -18.1%	–
CCc1ccccc1N1C(=O)C2CC(C)=C(C)CC2C1=O (configuration not stated)	–	inconclusive: 20.6 µM [falling, single point]

Complete entries from above. Order of values: lipid storage change, negative = inhibition	Potency
O=C(NCC1CCCO1)c1ccc(F)c2ccccc12 (configuration not stated) as listed: inconclusive: 27.1%	–
Cc1ccc2oc(/N=C(\N)NC(=O)C3CC3)nc2c1 as listed: inconclusive: 3.69%	–
O=C(CN(C(=O)CCC(=O)Nc1ccccn1)c1cccc(F)c1)NCc1ccco1 as listed: inconclusive: -16.7%	–

More compounds.

SMILES	lipid storage change, negative = inhibition	Potency
CCc1cccc(NC(=O)COC(=O)c2cc(=O)c3ccccc3o2)c1	inconclusive	–
CCCc1nnc(SCC(=O)Nc2ccc(Cl)cc2Cl)o1	–	inconclusive: 0.58 µM [activator, single point]
CC(=O)Nc1ccc(NC(=O)CSc2n[nH]c(-c3cccs3)n2)cc1	inconclusive	–
CCOC(=O)c1[nH]c2ccc(F)cc2c1NC(=O)CN1CCN(C/C=C/c2ccccc2)CC1	inconclusive: 38.4%	–
CCOc1cccc2cc(C(=O)N3CCc4ccccc43)c(=O)oc12	inconclusive: 11.3%	–
COc1ccccc1NC(=O)c1c(Nc2ccccc2F)sc(C(=O)Nc2cccc(Cl)c2)c1N	inconclusive: -33.6%	–
Cc1sc2nc(CSCC(=O)Nc3cc(F)ccc3F)[nH]c(=O)c2c1C	–	inconclusive: 9.2 µM [activator, partial curve, poor fit]
CCC(=O)N1CCN(c2ccc(NC(=O)c3ccc([N+](=O)[O-])o3)cc2Cl)CC1	inconclusive: -48.6%	–
CC(=O)N1N=C(c2ccc(C)cc2)CC1c1ccco1 (configuration not stated)	inconclusive: 12.4%	–
Cc1cc(C)cc(OCC(=O)NNC(=O)c2cc3ccccc3oc2=O)c1	–	inconclusive: 16.4 µM [activator, single point]
CC(=O)Nc1ccc(S(=O)(=O)N2CCC3(CC2)CC(=O)c2ccccc2O3)cc1	inconclusive: 30.9%	–
CCN(CC)C(=O)CSc1nc2ccc(NC(=O)CSc3nnc(N)s3)cc2s1	–	inconclusive: 18.4 µM [falling, partial curve, poor fit]
O=C(COC(=O)C12CC3CC(CC(C3)C1)C2)NC12CC3CC(CC(C3)C1)C2	inconclusive: -26.8%	–
CCOC(=O)c1sc(=NC(=O)COc2ccccc2)n(C)c1C	inconclusive: -18.4%	–
Cc1cc(C(=O)COC(=O)c2ccc[nH]c2=O)c(C)n1CCc1ccc(F)cc1	inconclusive: -28.9%	–
Nc1ccc(CCC(=O)N2CCCC2)cc1	inconclusive: -45.6%	–
COc1cccc(NC(=O)NC2CCCCC2C)c1 (configuration not stated)	inconclusive: 7%	–
CN(c1ccccc1)P(=O)(N(C)c1ccccc1)N(C)c1ccccc1	inconclusive: -72%	–
CC(C)Cn1c(SCC(=O)NCc2ccc(Cl)cc2)nnc1-c1cccc(S(=O)(=O)N2CCOCC2)c1	–	inconclusive: 29.1 µM [falling, single point]
O=C(COC(=O)c1ccc2c(c1)C(=O)N(c1cccc3ncccc13)C2=O)c1ccc(Cl)cc1	inconclusive: -9.76%	–
Cc1ccsc1C(=O)OCC(=O)NCc1ccc(Cl)cc1	inconclusive: 7.84%	–
CC1CC(=O)Nc2ccccc2N1C(=O)COc1ccc2cc(Br)ccc2c1 (configuration not stated)	inconclusive: -7.09%	–
CC(=O)Nc1ccc(Br)c2ccccc12	inconclusive: -50.8% [cytotoxic] [at 0.00295 µM]	–
O=C(COC(=O)c1ccc(F)cc1)NCCc1ccc(F)cc1	inconclusive: 4.77%	–
COC(=O)c1ccc(N2CCOCC2)c(NC(=O)c2cccnc2)c1	inconclusive: 36.1% [at 0.00295 µM]	–
O=S1(=O)CCOC[C@H](CC2CCCCC2)N1Cc1ccccc1F	–	inconclusive: 4.11 µM [activator, partial curve]

SMILES	lipid storage change, negative = inhibition	Potency
CCCC(=O)Nc1cc(C)c(NC(=O)c2ccncc2)cn1	–	inconclusive: 29.1 µM [activator, partial curve, poor fit]
Fc1cccc(Nc2nc3ccccc3n3nnnc23)c1	inconclusive: -24.1%	–
COc1ccc(-c2cn(CCN)c(-c3ccncc3)n2)cc1	inconclusive: 15.3%	–
COC(=O)CNC(=O)C1CCCN1C(=O)CNC(=O)OC(C)(C)C (stereo not drawn) (Boc-Gly-[ξP]-Gly-OMe)	inconclusive: 4.06%	–
O=C(CCC(=O)N1CCCc2ccccc21)N1CCN(S(=O)(=O)c2ccccc2)CC1	inconclusive: 11.8%	–
O=C(NCC1CCCO1)C1CCN(C(=O)c2ccc(Br)cc2)CC1 (configuration not stated)	inconclusive: 24.9%	–
Cn1ccc(C(=O)Nc2ccc(Br)cc2Br)n1	inconclusive: 21.5%	–
Cc1cccc(Nc2nc(N)c([N+](=O)[O-])c(N3CCC(C)CC3)n2)c1	inconclusive: -18.5%	–
O=C(C1CCN(c2nnc(-n3cccc3)s2)CC1)N1CCN(c2cccc(C(F)(F)F)c2)CC1	–	inconclusive: 13 µM [activator, single point]
Cc1c(NC(=O)C(C)Sc2ccccc2)c(=O)n(-c2ccccc2)n1C (configuration not stated)	inconclusive: -46.2%	–
CC1(C)CC(=O)N(c2ccc(C#N)cc2)C(=O)C1	inactive	–
COc1ccc(-c2cc(C(=O)N3CCN(c4ncccn4)CC3)c3ccccc3n2)cc1	inconclusive: 6.65%	–
COc1ccc2[nH]c3c(NCCCOC(C)C)ncnc3c2c1	–	inconclusive: 23.1 µM [falling, single point]
CCOC(=O)C1=C(C)NC(=O)C(C(N)=O)C12CCCC2 (configuration not stated)	–	inconclusive: 3.66 µM [cytotoxic, full curve]
O=C(NC(Nc1ccccn1)C(Cl)(Cl)Cl)c1ccccc1 (configuration not stated)	inconclusive: -12.9%	–
CC1CCCCN1C(=O)c1cccc(NC2=C(Cl)C(=O)N(Cc3ccccc3)C2=O)c1 (configuration not stated)	inconclusive: -100%	–
Nc1ccccc1N=Nc1ccccc1N	inconclusive: -37.5%	–
Cn1cc(CN2CCC(C(=O)Nc3cccc(-c4cscn4)c3)CC2)cn1	–	inconclusive: 29.1 µM [activator, single point]
O=C(COC(=O)c1c[nH]c2ccccc12)Nc1ccc(F)cc1	inconclusive: -11.2%	–
COc1cc(C=O)cc(Br)c1OCC(N)=O	inconclusive: -18.7%	–
O=C(CNC(=O)c1ccc(S(=O)(=O)N2CCCC2)cc1)N/N=C/c1c(Cl)cccc1Cl	inconclusive: 23.6%	–
Cc1ccc(S(=O)(=O)NC(=O)Nn2c(C)nnc2C)cc1	inconclusive: -7.94%	–
Cc1ccccc1OCC(=O)Nc1ccc2c(c1)ncn2C	–	inconclusive: 0.259 µM [falling, full curve, poor fit]
Fc1ccc(C2=NN(c3ccccc3)C(c3ccco3)C2)cc1 (configuration not stated)	inconclusive: 21.3%	–
C/C(=N\NC(=O)c1cc(-c2ccc(C)s2)[nH]n1)c1ccncc1	inconclusive: -43.3%	–
